# Test results from PubChem BioAssay (EPA / NIEHS).
# By UniProt entry, the sequences of proteins in these tests, tags left out.
# UniProt P04637, whole entry, looked up: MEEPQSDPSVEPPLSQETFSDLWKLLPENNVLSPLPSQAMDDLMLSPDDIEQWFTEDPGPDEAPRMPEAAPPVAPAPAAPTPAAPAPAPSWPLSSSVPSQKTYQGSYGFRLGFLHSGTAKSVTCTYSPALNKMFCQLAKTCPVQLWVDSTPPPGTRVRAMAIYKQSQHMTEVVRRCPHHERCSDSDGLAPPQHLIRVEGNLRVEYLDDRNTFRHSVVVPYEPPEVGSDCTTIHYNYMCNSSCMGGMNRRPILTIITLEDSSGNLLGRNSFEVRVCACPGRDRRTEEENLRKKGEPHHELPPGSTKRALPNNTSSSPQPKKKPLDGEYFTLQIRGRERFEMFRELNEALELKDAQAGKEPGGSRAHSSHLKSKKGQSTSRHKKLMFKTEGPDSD
# Several values for one entry are separate records, joined by “and”; a condition that tells them apart may be missing. Identical values can stand only once. The inconclusive results got no clear call from the source; some entries with a clear call stand among them for comparison. Potencies beside an inconclusive call are fits to weak or partial responses and may not hold up. Activity calls are given as the source filed them. How the source made its calls: active means hit-call score of the fitted dose curve at least 0.9, where 1 is the maximum; inconclusive means response in the unintended direction; inactive means score below 0.9.
# Target: Cellular tumor antigen p53 (Homo sapiens) (UniProt P04637)
# Assay: TOX21_p53_BLA_p5_ratio: Tox21 HCT-116 p53 Agonism Beta-lactamase Assay, Ratio, Phase 5 (AID 2283599)
# How it was run: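 HCT-116 p53-bla cells (4000/well) plated 5 h, dosed with compound (217-fold DMSO dilution) for 16 h at 37 C; CCF4-AM substrate 2 h at room temperature. Activity is the 460/530 nm emission ratio (405 nm excitation), fitted in gain-of-signal direction versus DMSO.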
Compound,AC50,outcome
O=C(O)c1c2ccccc2cc2ccccc12,inconclusive: 46 µM,–
CCOCCC(=O)OCC,inconclusive: 47.6 µM,–
CC(=O)Oc1ccc(C(=C2CCCCC2)c2ccc(OC(C)=O)cc2)cc1,inconclusive: 23 µM,–
O=C(OCCO)c1ccccc1O,inconclusive: 23 µM,–
Cc1cc(CC(=O)O)n(C)c1C(=O)c1ccc(Cl)cc1,inconclusive: 46.1 µM and inconclusive: 23 µM,inactive
O=C(O)CCC(=O)C(=O)O,inconclusive: 23 µM,–
CC(C)OC(=O)OCOP(=O)(CO[C@H](C)Cn1cnc2c(N)ncnc21)OCOC(=O)OC(C)C,inconclusive: 23 µM,–
Clc1cc(Cl)c(Cl)nc1Cl,inconclusive: 46.2 µM,–
Nc1cccc2c(=O)[nH][nH]c(=O)c12,–,inactive
OC[C@H]1O[C@@H](OCCc2ccc(O)cc2)[C@H](O)[C@@H](O)[C@@H]1O,inconclusive: 23 µM,–
C=Cc1ccc(S(=O)(=O)O)cc1,inconclusive: 23 µM,–
O=C1c2ccccc2C(=O)C1c1ccc(Br)cc1,inconclusive: 23 µM,–
Nc1cc(S(=O)(=O)O)cc2cc(S(=O)(=O)O)cc(O)c12,inconclusive: 81.1 µM,inactive
CC(C)Cc1ccc([C@@H](C)C(=O)NS(C)(=O)=O)cc1,–,inactive
CO/N=C(\C(=O)N[C@@H]1C(=O)N2C(C(=O)O)=C(CSc3cnns3)CS[C@H]12)c1csc(N)n1,–,inactive
CC(=O)NO,–,inactive
CC(C)(C)NC[C@H](O)COc1ccccc1C1CCCC1,–,inactive
CN(C(=O)CO)c1c(I)c(C(=O)NCC(O)CO)c(I)c(C(=O)NCC(O)CO)c1I (centres undefined),inconclusive: 23 µM,–
CO/N=C(\C(=O)N[C@@H]1C(=O)N2C(C(=O)O)=C(COC(C)=O)CS[C@H]12)c1csc(N)n1 (stereo in doubt),–,inactive

# System: not listed separately
# Assay: TOX21_p53_BLA_p5_viability: Viability Assessment in the Tox21 HCT-116 p53 Agonism Beta-lactamase Assay, Phase 5 (AID 2283600)
# How it was run: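 Decreased CellTiter-Glo luminescence denotes lost viability. Exposure: 16 h at 37C, 5% CO2, with compounds from DMSO stocks diluted 217-fold in wells of 4000 cells.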
Compound,AC50,outcome
CCOCCC(=O)OCC,inconclusive: 47.6 µM,–
CC(=O)Oc1ccc(C(=C2CCCCC2)c2ccc(OC(C)=O)cc2)cc1,inconclusive: 39.9 µM,–
O=C(OCCO)c1ccccc1O,inconclusive: 23 µM,–
OCc1cc(C(O)CNCCCCCCOCCCCc2ccccc2)ccc1O (centres undefined),inconclusive: 23 µM,–
Cc1cc(CC(=O)O)n(C)c1C(=O)c1ccc(Cl)cc1,inconclusive: 46.1 µM,–
O=C(O)CCC(=O)C(=O)O,inconclusive: 1.39e-05 µM,inactive
C=Cc1ccc(S(=O)(=O)O)cc1,–,inactive
Nc1cc(S(=O)(=O)O)cc2cc(S(=O)(=O)O)cc(O)c12,inconclusive: 1.71 µM,inactive
CC(C)Cc1ccc([C@@H](C)C(=O)NS(C)(=O)=O)cc1,–,inactive
CO/N=C(\C(=O)N[C@@H]1C(=O)N2C(C(=O)O)=C(CSc3cnns3)CS[C@H]12)c1csc(N)n1,inconclusive: 10.4 µM,–
CC(=O)NO,–,inactive
CO/N=C(\C(=O)N[C@@H]1C(=O)N2C(C(=O)O)=C(COC(C)=O)CS[C@H]12)c1csc(N)n1 (stereo in doubt),–,inactive

# Target: Cellular tumor antigen p53 (Homo sapiens) (UniProt P04637)
# Assay: TOX21_p53_BLA_p4_ratio: Tox21 HCT-116 p53 Agonism Beta-lactamase Assay, Ratio, Phase 4 (AID 2283601)
# How it was run: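 HCT-116 p53 beta-lactamase reporter cells (4000/well) preincubated 5 h, then compound (217-fold dilution of DMSO stock) for 16 h at 37C. CCF4-AM substrate added 2 h at room temperature; 460/530 nm emission ratio fitted upward versus DMSO.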
Compound,AC50,outcome
Oc1cc(O)cc(O)c1,inconclusive: 23 µM,–
Nc1cccc([N+](=O)[O-])c1,inconclusive: 45.3 µM,–
Cc1cc(CC(=O)O)n(C)c1C(=O)c1ccc(Cl)cc1,inconclusive: 46.1 µM and inconclusive: 37.2 µM,inactive
O=C(O)CCC(=O)C(=O)O,inconclusive: 23 µM,–
Cc1cc(C)cc(N)c1,–,inactive
Nc1cc(S(=O)(=O)O)cc2cc(S(=O)(=O)O)cc(O)c12,inconclusive: 83.2 µM,–
CC(C)Cc1ccc([C@@H](C)C(=O)NS(C)(=O)=O)cc1,inconclusive: 23 µM,–
CO/N=C(\C(=O)N[C@@H]1C(=O)N2C(C(=O)O)=C(CSc3cnns3)CS[C@H]12)c1csc(N)n1,–,inactive
